Taken from: PubChem BioAssay AID1159578 (Peter MacCallum Cancer Centre, 2015)
The whole screen tested about 18,000 reagents; this is a random part of them. About 1,030 of all reagents (5.7%) were called active. 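Inactive calls also include pools with fewer than 3300 nuclei, whose migration was not assessed.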 The raw values are shown without normalisation. A number with no mark means an inactive call. Not all columns of the deposit are shown. No sequences are given here.

- Assay: 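Knock-downs that alter how fast lymphatic endothelial cells migrate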 (primary screen)
- Cells: human lymphatic endothelial cells
- Reagents: siRNA pool against human genes, 40 nM
- Time to read-out: 48 h after transfection
- Read-out: 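Cells stained with dye and imaged after a scratch; covered wound area and nuclei counted, duplicates averaged, migration set against mock wells and turned into a robust z-score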
- Direction: migration robust z-score: higher = faster migration into the scratch; nuclei per well: higher = more cells in the well
- Rule for the call: 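Pools averaging fewer than 3300 nuclei are never called; remaining pools count as changed when migration robust z lies outside -2 to 2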
- Meaning of the calls: active = migration changed; inactive = no migration change, or too few cells

target | migration robust z-score | nuclei per well, duplicate mean
ASB12 (ankyrin repeat and SOCS box containing 12) | -0.36 | 6278
ARHGEF28 (Rho guanine nucleotide exchange factor 28) | 0.24 | 6511
TMEM179B (transmembrane protein 179B) | 0.58 | 6580
BAGE5 (BAGE family member 5) | -0.1 | 6212
LCN6 (lipocalin 6) | -0.37 | 6205
BMP4 (bone morphogenetic protein 4) | 0.08 | 5224
UCHL5 (ubiquitin C-terminal hydrolase L5) | 0.26 | 5901
AIFM2 (AIF family member 2, ferroptosis suppressor) | -1.09 | 5071
SAXO1 (stabilizer of axonemal microtubules 1) | -0.1 | 5997
TG (thyroglobulin) | 0.62 | 6400
CLPTM1L (CLPTM1 like) | -2.54 (active) | 5896
ZNF81 (zinc finger protein 81) | -0.24 | 6312
ABHD12 (abhydrolase domain containing 12, lysophospholipase) | -0.18 | 6274
DDX10 (DEAD-box helicase 10) | 0.23 | 6636
HNRNPF (heterogeneous nuclear ribonucleoprotein F) | -0.46 | 4092
ARHGEF12 (Rho guanine nucleotide exchange factor 12) | 0.52 | 4650
ZBTB21 (zinc finger and BTB domain containing 21) | 1.72 | 6310
CHRNB2 (cholinergic receptor nicotinic beta 2 subunit) | -0.9 | 5618
FBXO10 (F-box protein 10) | -0.47 | 5724

A few values from the list:
Value of CLPTM1L (CLPTM1 like) in “migration robust z-score”: -2.54 (active)
For “nuclei per well, duplicate mean”, FBXO10 (F-box protein 10) is entered as 5724
Value of DDX10 (DEAD-box helicase 10) in “migration robust z-score”: 0.23
SAXO1 (stabilizer of axonemal microtubules 1), migration robust z-score = -0.1
UCHL5 (ubiquitin C-terminal hydrolase L5), migration robust z-score = 0.26

The list goes on:
target | migration robust z-score | nuclei per well, duplicate mean
TLK1 (tousled like kinase 1) | 0.54 | 4994
STXBP6 (syntaxin binding protein 6) | 0.86 | 5996
IGSF5 (immunoglobulin superfamily member 5) | -0.05 | 5768
HCCS (holocytochrome c synthase) | 0.46 | 5222
FBXO2 (F-box protein 2) | -0.34 | 5064
KLHL32 (kelch like family member 32) | -1.24 | 6112
BAGE3 (BAGE family member 3) | -1.27 | 5772
CNIH3 (cornichon family AMPA receptor auxiliary protein 3) | -0.02 | 4868
ZNF710 (zinc finger protein 710) | -1.89 | 5948
FBXL15 (F-box and leucine rich repeat protein 15) | 0.57 | 5417
ID3 (inhibitor of DNA binding 3) | 0.44 | 3724
OR13C9 (olfactory receptor family 13 subfamily C member 9) | 1.26 | 5624
ZFAND4 (zinc finger AN1-type containing 4) | -1.9 | 4765
VWA1 (von Willebrand factor A domain containing 1) | 0.18 | 6230
B4GALT7 (beta-1,4-galactosyltransferase 7) | -0.78 | 5494
ITPRIPL2 (ITPRIP like 2) | 0.5 | 5818
AK1 (adenylate kinase 1) | 0.05 | 4600
LRRTM3 (leucine rich repeat transmembrane neuronal 3) | 0.45 | 6425
ITM2B (integral membrane protein 2B) | 0.83 | 6113
SPN (sialophorin) | 0.62 | 4291
MAP3K10 (mitogen-activated protein kinase kinase kinase 10) | 1.53 | 5264
DHX38 (DEAH-box helicase 38) | 0.54 | 7432
THSD7B (thrombospondin type 1 domain containing 7B) | 0.54 | 6743
DLG3 (discs large MAGUK scaffold protein 3) | 0.29 | 4693
MRGPRX3 (MAS related GPR family member X3) | 0.65 | 7182
PHB2 (prohibitin 2) | 0.93 | 5163
TMEM163 (transmembrane protein 163) | 1.6 | 5408
TLE5 (TLE family member 5, transcriptional modulator) | 0.02 | 6190
LGALS3 (galectin 3) | 0.83 | 5292
TMEM131L (transmembrane 131 like) | 2.1 (active) | 6347
GPR75 (G protein-coupled receptor 75) | -0.65 | 5668
KATNA1 (katanin catalytic subunit A1) | 0.42 | 5705
RAB1A (RAB1A, member RAS oncogene family) | 0.08 | 4598
SLC14A2 | 1.82 | 6136
GSK3B (glycogen synthase kinase 3 beta) | 0.78 | 6302
DPF3 (double PHD fingers 3) | 0.62 | 4672
PCDH10 (protocadherin 10) | -0.59 | 5928
ATPAF1 (ATP synthase mitochondrial F1 complex assembly factor 1) | 1.13 | 5548
